Experimental data as given in ChEMBL document CHEMBL1157454, “Citral derived amides as potent bacterial NorA efflux pump inhibitors” (2008).
Values after ≈ are worked out from the molar mass of the structure shown.

Test system: Staphylococcus aureus
Assay: microbe, parasite or virus in culture
Conditions: 1199B, 18 h

O=C(O)c1cn(C2CC2)c2cc(N3CCNCC3)c(F)cc2c1=O [CIPROFLOXACIN]
MIC: 8 µg/mL (≈ 24.1 µM)
